Test results: paper PMC4775227, “Molecular mechanism of thermosensory function of human heat shock transcription factor Hsf1” (eLife, 2016)
For at least one entry, the source does not settle the construct or the ends of the probe.

The chains behind the UniProt entries cited, without tags or fusion partners. Where a name states a change or a piece, a line headed by the entry shows the natural chain unless it says otherwise.
UniProt Q00613: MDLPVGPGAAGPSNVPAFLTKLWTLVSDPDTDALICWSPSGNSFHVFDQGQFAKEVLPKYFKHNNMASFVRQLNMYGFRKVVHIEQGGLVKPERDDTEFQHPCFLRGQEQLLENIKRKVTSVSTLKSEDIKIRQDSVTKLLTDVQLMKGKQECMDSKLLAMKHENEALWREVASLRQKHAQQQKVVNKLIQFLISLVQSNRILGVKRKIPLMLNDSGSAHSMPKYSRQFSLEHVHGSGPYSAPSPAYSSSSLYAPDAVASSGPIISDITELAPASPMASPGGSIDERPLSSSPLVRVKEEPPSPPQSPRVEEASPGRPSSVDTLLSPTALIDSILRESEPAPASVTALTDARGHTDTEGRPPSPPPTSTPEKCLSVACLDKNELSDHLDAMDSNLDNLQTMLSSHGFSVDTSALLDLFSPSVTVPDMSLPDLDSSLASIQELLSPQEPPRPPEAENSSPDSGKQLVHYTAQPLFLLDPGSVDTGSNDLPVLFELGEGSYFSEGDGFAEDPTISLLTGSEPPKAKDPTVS

Biological target: Hsf1 (heat-activated trimer) (Homo sapiens) (UniProt Q00613)
Test: fluorescence anisotropy
Conditions: global fit for fully active trimer, Hsf1 pre-incubated 10 min at 30-42 C; Hsf1-buffer: 25 mM Hepes pH 7.4, 150 mM NaCl, 10% glycerol, 2 mM DTT; binding at room temperature after 10 min pre-incubation at the stated temperature; recombinant protein; protein details: 6xHis-SUMO removed by Ulp1; label: 5'-Alexa Fluor 488

Sequence: CCCCTTCCCGAATATTCCCCC (double strand) [HSE-DNA (three HSEs), Alexa 488]
- Kd: 1.1 nM
